The target of assay [1] is T1, GST-ERj1-J fusion protein (J-domain of murine ERj1 fused to glutathione S-transferase) (mouse) (UniProt Q61712).
T1 sequence: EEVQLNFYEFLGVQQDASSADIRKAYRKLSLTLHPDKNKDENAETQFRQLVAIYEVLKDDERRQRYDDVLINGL
The assay is described as follows: pull-down; GST-ERj1-J or its mutant derivative (0.5 μM) bound to GSH-Sepharose beads; BiP 0.5 μM in PBS, with and without ATP (2 mM), 1 h at 4 °C; eluate analysed by SDS-PAGE; both purified.

The chains behind the UniProt entries cited, without tags or fusion partners. Residues count along the entry.
UniProt G3I8R9, residues 19-654: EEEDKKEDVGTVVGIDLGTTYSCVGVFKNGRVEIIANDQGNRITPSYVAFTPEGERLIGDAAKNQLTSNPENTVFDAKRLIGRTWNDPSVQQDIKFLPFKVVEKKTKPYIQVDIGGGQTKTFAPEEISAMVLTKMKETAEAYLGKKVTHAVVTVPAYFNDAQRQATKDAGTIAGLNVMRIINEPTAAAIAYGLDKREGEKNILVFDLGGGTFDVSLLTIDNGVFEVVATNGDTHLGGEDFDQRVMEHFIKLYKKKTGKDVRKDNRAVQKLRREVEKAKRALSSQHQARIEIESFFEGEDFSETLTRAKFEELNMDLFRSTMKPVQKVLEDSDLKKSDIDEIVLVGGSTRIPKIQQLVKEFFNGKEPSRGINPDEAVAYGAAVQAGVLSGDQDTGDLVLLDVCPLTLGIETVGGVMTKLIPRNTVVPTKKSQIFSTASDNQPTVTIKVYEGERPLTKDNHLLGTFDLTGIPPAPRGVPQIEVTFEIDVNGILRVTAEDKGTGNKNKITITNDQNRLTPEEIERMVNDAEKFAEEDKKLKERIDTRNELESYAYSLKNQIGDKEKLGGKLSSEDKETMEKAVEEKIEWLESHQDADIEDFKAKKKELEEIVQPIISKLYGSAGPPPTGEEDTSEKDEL

The next assay has as its target T2, GST-ERj1-J-H33Q (mouse) (UniProt Q61712).
T2 sequence: T1 sequence with H34Q
The assay is described as above.

In the next assay the target is T3, GST-ERj1-J-R26A (mouse) (UniProt Q61712).
T3 sequence: T1 sequence with R27A
The assay is described as above.

The target of assay [2] is T1, GST-ERj1-J fusion protein (J-domain of murine ERj1 fused to glutathione S-transferase) (mouse). The assay is described as follows: SPR; GST fusion proteins (400 response units) captured by anti-GST antibodies on a CM5 chip, GST in the reference cell; BiP 0.25-2 μM passed over at 20 μl/min; PBS with 3 mM KCl, 1 mM MgCl2, 0.1% Tween 20 and 2 mM ATP; maximum response against concentration, one-site fit; apparent affinity; both …. In general terms: Surface plasmon resonance follows binding to a sensor surface in real time, without labels.

Positions count from the first letter of the chain named. Results are given in words; binding and its absence hold for the method and conditions named. Some binding calls cover weakened binding; strength is not graded here. Where a sequence is shown, tags or fusion partners need not be part of it.

Take “Hamster BiP (from UniProt G3I8R9 19-654)”: the binding result in assay [1] is “binds”; in the assay with GST-ERj1-J-H33Q (mouse), “no binding (tested: 0.5 μM BiP)”; in the assay with GST-ERj1-J-R26A (mouse), “binds”; in assay [2], “binds”.

Source of the values: paper PMC1906734.
